Binding data for one molecule are collected here from PMC8024384.

The chains behind the UniProt entries cited, without tags or fusion partners.
UniProt Q969H0: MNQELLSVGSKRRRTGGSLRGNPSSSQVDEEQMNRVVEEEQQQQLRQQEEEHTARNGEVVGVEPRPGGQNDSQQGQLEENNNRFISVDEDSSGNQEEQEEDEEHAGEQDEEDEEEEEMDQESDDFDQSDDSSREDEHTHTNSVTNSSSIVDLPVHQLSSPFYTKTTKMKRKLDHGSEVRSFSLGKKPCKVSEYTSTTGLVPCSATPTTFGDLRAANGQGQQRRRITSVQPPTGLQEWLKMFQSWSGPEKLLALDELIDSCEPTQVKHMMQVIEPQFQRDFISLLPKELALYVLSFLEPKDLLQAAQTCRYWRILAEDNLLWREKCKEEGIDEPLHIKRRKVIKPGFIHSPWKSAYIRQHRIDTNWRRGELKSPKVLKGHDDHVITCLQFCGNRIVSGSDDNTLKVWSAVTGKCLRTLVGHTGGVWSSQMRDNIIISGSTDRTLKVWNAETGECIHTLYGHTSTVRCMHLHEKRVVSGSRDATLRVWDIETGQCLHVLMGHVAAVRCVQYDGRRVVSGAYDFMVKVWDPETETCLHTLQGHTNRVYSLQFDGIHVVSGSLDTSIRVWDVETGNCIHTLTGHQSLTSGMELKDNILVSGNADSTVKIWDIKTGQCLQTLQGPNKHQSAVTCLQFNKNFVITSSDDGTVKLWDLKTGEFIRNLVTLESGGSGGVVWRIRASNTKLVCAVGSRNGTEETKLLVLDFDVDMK

The target of the experiment is FBXW7 (human (in Ishikawa and HEC-1A cells)) (UniProt Q969H0). As to the kind of experiment: co-IP; immunoprecipitation from Ishikawa cells with or without SOCS2-AS1 overexpression and from HEC-1A cells with or without SOCS2-AS1 knockdown; which protein was precipitated not given.

These are yes or no findings as the source states them, for the method shown. In cells and extracts the contact can be indirect. Some binding calls cover weakened binding; strength is not graded here.

B1: Aurora kinase A (enzyme, UniProt O14965 1-403)
chain: MDRSKENCISGPVKATAPVGGPKRVLVTQQFPCQNPLPVNSGQAQRVLCPSNSSQRIPLQAQKLVSSHKPVQNQKQKQLQATSVPHPVSRPLNNTQKSKQPLPSAPENNPEEELASKQKNEESKKRQWALEDFEIGRPLGKGKFGNVYLAREKQSKFILALKVLFKAQLEKAGVEHQLRREVEIQSHLRHPNILRLYGYFHDATRVYLILEYAPLGTVYRELQKLSKFDEQRTATYITELANALSYCHSKRVIHRDIKPENLLLGSAGELKIADFGWSVHAPSSRRTTLCGTLDYLPPEMIEGRMHDEKVDLWSLGVLCYEFLVGKPPFEANTYQETYKRISRVEFTFPDFVTEGARDLISRLLKHNPSQRPMLREVLEHPWITANSSKPSNCQNKESASKQS
Consider B1, for which the binding entry is “binds”.
